Data as given in PubChem BioAssay AID1259254 (NCATS, 2017)
This is an unselected part of about 59,000 reagents. Over the whole deposit, about 1,550 (2.6%) are marked active. 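G2 share is only a proxy for re-replication; each gene was hit by three separate siRNAs, and active genes were retested.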 Unmarked entries are inactive. The numbers tell different reagents against one gene apart. Further read-outs or replicates are left out here. Not given: the amount of reagent.

Aim: 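Genome-wide screen for genes that prevent DNA re-replication in cancer cells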 (primary screen)
Cell system: human HCT116 colorectal cancer cells
Knock-down reagent: single siRNA against human genes
Timing: 3 days
Measurement: 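Imaged Hoechst DNA stain sorts each cell into a cycle phase by DNA amount; per plate, G2 fraction set to 0% for non-targeting and 100% for GMNN siRNA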
Scale: G2 robust z-score: higher = more G2 cells, more excess DNA replication
Rule for the call: 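An siRNA counts as active if its G2 robust z-score lies at least 5 MADs above the screen median; here such calls match roughly 38% of GMNN control or more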

For IMP4 (GeneID 92856) #1, what does the deposit list?
G2 robust z-score: 1.16

For IMP4 (GeneID 92856) #2, how do the results read?
G2 robust z-score: 1.11

What did the screen give for IMP4 (GeneID 92856) #3?
G2 robust z-score: -0.146

With YTHDF2 (GeneID 51441) #1, what does the deposit list?
G2 robust z-score: 3.02

What did the screen give for YTHDF2 (GeneID 51441) #2?
G2 robust z-score: -0.802

What is on record for YTHDF2 (GeneID 51441) #3?
G2 robust z-score: -0.185

What did the screen give for ADCY8 (GeneID 114) #1?
G2 robust z-score: -1.36

For ADCY8 (GeneID 114) #2, what does the deposit list?
G2 robust z-score: 0.988

With ADCY8 (GeneID 114) #3, what was measured?
G2 robust z-score: 0.306

For NKX2-3 (GeneID 159296) #1, what does the deposit list?
G2 robust z-score: -1.04

For NKX2-3 (GeneID 159296) #2, what was measured?
G2 robust z-score: 2.03

For NKX2-3 (GeneID 159296) #3, how do the results read?
G2 robust z-score: 1.62

With USP32P2 (GeneID 220594) #1, what does the deposit list?
G2 robust z-score: 0.155

What is on record for USP32P2 (GeneID 220594) #2?
G2 robust z-score: 1.83

With USP32P2 (GeneID 220594) #3, what was measured?
G2 robust z-score: 0.819

With CLDN14 (GeneID 23562) #1, how do the results read?
G2 robust z-score: -0.431

For CLDN14 (GeneID 23562) #2, how do the results read?
G2 robust z-score: 1.23

How did the screen score CLDN14 (GeneID 23562) #3?
G2 robust z-score: 0.00234

What did the screen give for RNASEH2B (GeneID 79621) #1?
G2 robust z-score: 1.02

For RNASEH2B (GeneID 79621) #2, what does the deposit list?
G2 robust z-score: 0.317

How did the screen score RNASEH2B (GeneID 79621) #3?
G2 robust z-score: -0.495

What is on record for KTN1 (GeneID 3895) #1?
G2 robust z-score: -1.2

With KTN1 (GeneID 3895) #2, what does the deposit list?
G2 robust z-score: -0.435

What did the screen give for KTN1 (GeneID 3895) #3?
G2 robust z-score: 3.71

Reformatted: entries from further up
CLDN14 (GeneID 23562) #2
- G2 robust z-score: 1.23

CLDN14 (GeneID 23562) #3
- G2 robust z-score: 0.00234

RNASEH2B (GeneID 79621) #1
- G2 robust z-score: 1.02

RNASEH2B (GeneID 79621) #2
- G2 robust z-score: 0.317
